Data as given in patent publication WO2007042289A2 (dated 2007).
These are yes or no findings as the source states them, for the method shown. Some entries that bind do so weakly or less than the wild type.

Protein sequences, listed by entry. Tags and fused reporters are not part of them. Residues count along the entry.
UniProt P08069, residues 31-932: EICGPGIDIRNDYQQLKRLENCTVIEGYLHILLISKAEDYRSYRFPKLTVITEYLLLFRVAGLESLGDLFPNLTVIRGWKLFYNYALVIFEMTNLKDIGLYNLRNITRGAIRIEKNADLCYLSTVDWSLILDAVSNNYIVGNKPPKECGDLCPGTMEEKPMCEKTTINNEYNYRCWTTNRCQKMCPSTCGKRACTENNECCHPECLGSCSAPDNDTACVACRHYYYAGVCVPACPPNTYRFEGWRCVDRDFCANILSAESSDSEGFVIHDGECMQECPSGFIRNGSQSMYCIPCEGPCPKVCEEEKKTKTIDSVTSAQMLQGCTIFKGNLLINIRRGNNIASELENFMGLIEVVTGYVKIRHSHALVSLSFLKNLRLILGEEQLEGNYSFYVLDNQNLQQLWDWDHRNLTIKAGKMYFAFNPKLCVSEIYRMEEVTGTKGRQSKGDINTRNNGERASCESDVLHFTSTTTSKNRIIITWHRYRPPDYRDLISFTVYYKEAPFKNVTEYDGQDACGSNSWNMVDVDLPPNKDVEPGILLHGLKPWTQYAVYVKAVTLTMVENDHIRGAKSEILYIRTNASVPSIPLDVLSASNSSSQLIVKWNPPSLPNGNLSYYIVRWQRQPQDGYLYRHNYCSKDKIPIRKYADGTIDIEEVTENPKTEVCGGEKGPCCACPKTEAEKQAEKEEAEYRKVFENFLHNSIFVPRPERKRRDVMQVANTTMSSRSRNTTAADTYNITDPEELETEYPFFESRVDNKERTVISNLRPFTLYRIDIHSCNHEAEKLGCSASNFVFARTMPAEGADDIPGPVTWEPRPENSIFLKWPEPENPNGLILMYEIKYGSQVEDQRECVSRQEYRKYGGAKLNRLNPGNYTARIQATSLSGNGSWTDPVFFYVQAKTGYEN

Target: T1, recombinant human IGF-IR (rhIGFIR) (human, UniProt P08069 31-932, limits assumed)
T1 construct: Bought; also called immobilized IGF-IR
Test: ELISA, periplasmic extracts on solid phase coated receptor

Row | binding | Binder
1 | binds | PMP3G7 (VHH) VHH: DVQLVESGGGLVQAGGSLRLSCAASESISTINVMAWYRQAPGKQRELVAEITRSGRTNYVDSVKGRFTISRDNAKNTMYLQMNSLNLEDTAVYYCRTIDGSWREYWGQGTQVTVSS
2 | binds | PMP2C7 (VHH) VHH: QVKLEESGGGLVQPGGSLRLSCVASGRTFSNYAMGWFRQAPGQEREFVAAINWNSRSTYYADSVKGRFTISRLNARNTVYLQMNRLKPEDTAVYDCAASHDSDYGGTNANLYDYWGQGTQVTVSS
3 | binds | PMP1C7 (VHH, Anti-IGF-IR Nanobody; tag not described; also called IGFRPMP1C7) VHH: QVKLEESGGGLVQAGGSLRLSCVASGRTFSRTAMAWFRQAPGKEREFVATITWNSGTTRYADSVKGRFFISKDSAKNTIYLEMNSLEPEDTAVYYCAATAAAVITPTRGYYNYWGQGTQVTVSS
4 | binds | PMP4B11 (VHH) VHH: EVQLVESGGGLVQPGGSLRLSCAASGSIFTFNAMGWYRQAPGKQRELVAVIISGGSTHYVDSVKGRFTISRDNAKKMVYLQMNSLKPEDTAVYYCNVKKFGDYWGQGTQVTVSS
